Results from PubChem BioAssay AID1347076 (National Center for Advancing Translational Sciences (NCATS), 2019).
The whole screen tested about 400,000 compounds, of which about 13,000 (3.2%) were called active. This list was built around the results that the source calls inconclusive (neither active nor inactive); the mix of calls is not that of the screen. The call rests on the fitted dose curve; in most records, active means well fitted cell-killing curve with a large enough effect; inconclusive means small, poorly fitted or top-dose-only effect, or effect the other way; inactive means flat fitted curve, though single readings scatter. Where the call is inconclusive, the potency comes from a doubtful curve fit.
Potency means the concentration at half of the fitted maximal effect.

Assay: qHTS assay for MDR1-selective chemotherapeutics: Primary screen using the drug-selected MDR subline cells KB-V1; further: nearly all actives have a fitted effect of over 60% in size
Conditions: KB-V1 MDR cells viability, CellTiter-Glo, 72 h; series mostly up to 46.1 µM
Method in brief: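 Following 72 h at 37 degrees C with compound, KB-V1 cell viability was read by CellTiter-Glo luminescence, medium being phenol-red-free DMEM plus 10% FBS; concentration-response parameters came from normalized, curve-fitted qHTS data.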
For `CCN(CC)CCN1C(=O)Cn2c(C)c(C)c3cccc1c32`, the Potency was inconclusive: 18.4 µM [cytotoxic, partial curve, poor fit]. In the case of `O=C(Nc1ccccc1-c1nc2ccccc2[nH]1)c1ccc(N2C(=O)CCC2=O)cc1`, the Potency is reported as “inactive”. With `O=C(CN1CCN(c2ccc(Cl)cc2)CC1)Nc1ccc(Cl)c(C(F)(F)F)c1` the Potency was “inactive”. For `O=C(CN1C(=O)NC(Cc2c[nH]c3ccccc23)C1=O)Nc1ccc(Br)cc1F` (stereo not drawn), the Potency was “inactive”. For `CCOc1ccc(-n2c(=O)c3c4c(sc3n(Cc3cc(=O)n5cc(Cl)ccc5n3)c2=O)CCC4)cc1`, the Potency was inconclusive: 14.6 µM [rising, partial curve]. For `CCn1c(SCc2ccc(F)cc2)nc2c(c1=O)SCC2`, the Potency was inconclusive: 10.3 µM [cytotoxic, partial curve]. For `CCOc1ccc(N)c(SSc2cc(OCC)ccc2N)c1`, the Potency was “inactive”. For `CCOC(=O)c1cnc2c(C)cc(C)cc2c1NCCCN1CCOCC1`, the Potency was inconclusive: 29.1 µM [cytotoxic, single point]. For `CC1CCCCC1NC(=O)COC(=O)c1cccn1C` (stereo not drawn), the Potency was “inactive”. In the case of `CC(C)CN(C(=O)C1CSC2(C)CCC(=O)N12)c1c(N)n(Cc2ccccc2)c(=O)[nH]c1=O` (stereo not drawn), the Potency is reported as inconclusive: 29.1 µM [rising, single point]. In the case of `Cc1ccc(NC(=O)COC(=O)c2ccc3c(c2)OCCO3)cc1`, the Potency is reported as inconclusive: 29.1 µM [rising, single point]. With `COc1ccc(C(C(=O)NC2CCCC2)N(C(=O)c2snc(-c3ccc(F)cc3)c2N)c2ccc(F)cc2)cc1` (stereo not drawn) the Potency was inconclusive: 2.31 µM [cytotoxic, partial curve, poor fit]. With `CN1CCN(C(=O)c2ccc(C(C)(C)C)cc2)CC1` the Potency was inconclusive: 20.6 µM [cytotoxic, single point]. With `Cc1nn(Cc2ccccc2Cl)c(C)c1NC(=O)c1nc2ncccn2n1` the Potency was “inactive”. With `CCOc1cccc(C2C=C(c3ccc4c(c3)OCO4)NC(c3ccc(Br)cc3)N2)c1O` (stereo not drawn) the Potency was “inactive”. In the case of `CCOC(=O)N1CCN(C(=O)C(=O)NN)CC1`, the Potency is reported as “inactive”. In the case of `CC[C@@H](C(=O)n1nc(C)cc1C)[C@H](NS(=O)(=O)c1ccc(C)cc1)c1ccccc1`, the Potency is reported as inconclusive: 25.9 µM [cytotoxic, single point]. With `CCOC(=O)N1CCC(N2Cc3cccc(C(=O)NC(C)c4ccc5c(c4)OCCO5)c3C2=O)CC1` (stereo not drawn) the Potency was “inactive”. In the case of `COc1ccc(C(=O)CC(Nc2ccc([N+](=O)[O-])cc2)c2ccc(OC)cc2)cc1` (stereo not drawn), the Potency is reported as active: 10.3 µM. For `CC1(C)C(=O)Nc2ccccc2N1C(=O)CSc1nc(-c2ccccc2)cs1`, the Potency was inconclusive: 16.4 µM [cytotoxic, single point]. In the case of `CCOC(=O)[C@]12CCC=C1N(Cc1ccccc1)C(=O)[C@H](CC(=O)NCc1ccc(C)o1)C2`, the Potency is reported as inconclusive: 11.6 µM [cytotoxic, partial curve, poor fit]. In the case of `CCCCCCC(=O)NCC(=O)OCC(=O)c1ccccc1`, the Potency is reported as inconclusive: 6.51 µM [rising, full curve, poor fit]. For `CCC(C)(C)NC(=O)C(c1ccc(C)o1)N(Cc1ccc2c(c1)OCO2)C(=O)c1snc(C(N)=O)c1N` (stereo not drawn), the Potency was “inactive”. For `Cc1ccccc1C(=O)N1CCN(c2ccc(NC(=O)c3cccnc3Cl)cc2)CC1`, the Potency was inconclusive: 13 µM [cytotoxic, partial curve]. With `Nc1c(N(CCC2=CCCCC2)C(=O)c2ccccc2F)c(=O)[nH]c(=O)n1Cc1ccccc1` the Potency was inconclusive: 11.6 µM [rising, partial curve]. In the case of `Cc1ccc(NC(=O)COc2ccc(/C=C3/SC(=Nc4ccccc4)N(Cc4cccnc4)C3=O)cc2)cc1`, the Potency is reported as active: 16.4 µM. With `Cc1ccc(C)c(N2CCN(C(=O)c3ccc(CS(=O)Cc4ccc(Cl)cc4)o3)CC2)c1` (stereo not drawn) the Potency was inconclusive: 29.1 µM [cytotoxic, single point]. For `COc1cc(C(=O)NC2CCN(Cc3ccccc3)CC2)cc(Cl)c1OC`, the Potency was “inactive”. For `CCOc1ccc(C(=O)Nc2cc3c(cc2N2CCCC2)n(CC)c(=O)n3CC)cc1OCC`, the Potency was “inactive”. In the case of `COc1ccc(C)cc1S(=O)(=O)NCC(c1ccco1)N1CCc2ccccc2C1` (stereo not drawn), the Potency is reported as inconclusive: 6.51 µM [cytotoxic, partial curve]. With `Cc1ccc(S(=O)(=O)N(C)c2ccc(C(=O)Nc3ccccn3)cc2)cc1` the Potency was inconclusive: 8.2 µM [cytotoxic, partial curve]. With `Nc1n[nH]c(N)c1N=Nc1cccc(C(F)(F)F)c1` the Potency was inconclusive: 29.1 µM [cytotoxic, single point]. With `COCCCN(C(=O)c1cc(C)oc1C)c1c(N)n(CC(C)C)c(=O)[nH]c1=O` the Potency was “inactive”. In the case of `CCOC1=C2[C@@H](CN(S(=O)(=O)c3ccc(C)cc3)[C@H]2c2ccccc2F)[C@H]2C(=O)N(Cc3ccccc3)C(=O)[C@H]2C1`, the Potency is reported as inconclusive: 23.1 µM [cytotoxic, single point]. For `CCN1C(=O)CC(NCc2ccc(S(N)(=O)=O)cc2)C1=O` (stereo not drawn), the Potency was inconclusive: 20.6 µM [rising, partial curve, poor fit]. With `CCn1c(SCC(=O)N2CCCc3ccccc32)nc2ccccc2c1=O` the Potency was active: 10.3 µM. In the case of `Nc1cc(Cl)ccc1CN1C(=O)c2ccccc2C1=O`, the Potency is reported as “inactive”. In the case of `CC(C)(C)c1ccc(C(=O)Nc2cc(-c3ccccc3)nn2-c2ccccc2)cc1`, the Potency is reported as “inactive”. In the case of `COc1cc(NC(=O)c2ccco2)c(OC)cc1NC(=O)CCC(=O)Nc1cc(C)ccc1C`, the Potency is reported as inconclusive: 1.03 µM [cytotoxic, partial curve]. In the case of `Cc1ccc(C)c(N2CCN(C(=O)c3cc4cc5ccc(C)cc5nc4s3)CC2)c1`, the Potency is reported as inconclusive: 14.6 µM [rising, partial curve, poor fit]. With `CCN(CC)C(=O)c1sc2nc(-c3ccccn3)[nH]c(=O)c2c1C` the Potency was inconclusive: 1.84 µM [cytotoxic, full curve, poor fit]. For `CCOC(=O)c1cccc(NC(=O)CCS(=O)(=O)c2cccs2)c1`, the Potency was active: 20.6 µM. For `CN1C(=O)C2(Nc3ccccc3-c3nc4ccccc4n32)c2ccccc21` (stereo not drawn), the Potency was inconclusive: 9.2 µM [cytotoxic, partial curve, poor fit].
